Experimental data as given in publication doi:10.1101/2021.06.29.450327.
Results are given in words; binding and its absence hold for the method and conditions named. In cells and extracts the contact can be indirect. Here binding means that the protein was enriched with, or labelled near, the bait; the list need not be complete. Sequences can lack the tags named with a protein.

Biological target: T1, Meflin tagged with the hemagglutinin (HA) epitope, in mouse MSCs (UniProt Q6GU68)
T1 sequence: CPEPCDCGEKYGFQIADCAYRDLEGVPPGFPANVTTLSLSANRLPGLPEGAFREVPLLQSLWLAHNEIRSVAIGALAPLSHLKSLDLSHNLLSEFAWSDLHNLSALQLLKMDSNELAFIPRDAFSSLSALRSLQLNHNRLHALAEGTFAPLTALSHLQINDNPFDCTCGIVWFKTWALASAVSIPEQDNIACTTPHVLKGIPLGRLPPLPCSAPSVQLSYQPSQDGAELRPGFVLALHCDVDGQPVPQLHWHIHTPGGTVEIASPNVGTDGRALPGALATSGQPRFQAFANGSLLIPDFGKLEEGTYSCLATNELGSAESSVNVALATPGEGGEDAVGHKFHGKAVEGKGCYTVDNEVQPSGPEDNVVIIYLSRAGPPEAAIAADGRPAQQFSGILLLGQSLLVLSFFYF
Experiment: affinity purification with mass spectrometry

Lox (found in the HA-Meflin immunoprecipitate from mouse MSCs) (from UniProt P28301) (enzyme)
binding: binds
